Test results: US20050186569A1, “Nucleic acid-associated proteins” (priority 2001, published 2005)
At least one compound was matched to its structure with a doubt left.

Tested on: SEQ ID NO:79 expression in C3A cells
Test: Microarray expression analysis of C3A cells treated with dexamethasone versus untreated C3A cells
Format: cell-based, human
Conditions: early confluent C3A cells, dexamethasone at 1, 10, and 100 μM for 1, 3, and 6 hours

## C[C@@H]1C[C@H]2[C@@H]3CCC4=CC(=O)C=C[C@]4(C)[C@@]3(F)[C@@H](O)C[C@]2(C)[C@@]1(O)C(=O)CO [dexamethasone, Dexamethasone]
  expression of SEQ ID NO:79: decreased expression
